The experiment concerns the target TAGL1 (TOMATO AGAMOUS LIKE1) (tomato) (UniProt Q8H281). As to the kind of experiment: two-hybrid; … GAL4 Two-Hybrid System III (Clontech); prey pGADT7-SlCMB1 in Y187 mated with baits in pGBKT7 in Y2HGold; diploids selected on DDO, then growth on QDO and blue colour on QDO/X (X-a-Gal); 30 °C, 3-5 d.

Amino acid sequences for entries named in this document (tags omitted).
UniProt K4BND8: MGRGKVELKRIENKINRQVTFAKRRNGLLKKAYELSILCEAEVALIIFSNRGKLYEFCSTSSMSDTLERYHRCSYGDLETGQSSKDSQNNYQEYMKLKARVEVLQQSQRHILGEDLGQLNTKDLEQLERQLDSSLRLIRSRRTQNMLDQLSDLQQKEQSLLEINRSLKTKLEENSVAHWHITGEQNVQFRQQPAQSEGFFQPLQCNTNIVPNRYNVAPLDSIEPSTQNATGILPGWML

Results are given in words; binding and its absence hold for the method and conditions named. A result given as binding can be weak or reduced; the word gives no strength.

SlCMB1 (from UniProt K4BND8 1-238): the binding result is reported as “binds”.

The record behind these values is publication PMC5821886.
